Measured values as given in doi:10.1101/2025.11.28.691146.
These are yes or no findings as the source states them, for the method shown. Tags and fused reporters may be left off the sequences shown.

Target: McrA (mitomycin C resistance protein) from Streptomyces lavendulae (Streptomyces lavendulae) (UniProt P43485)
Experiment: SEC

B1: McrA (mitomycin C resistance protein) from Streptomyces lavendulae (enzyme, UniProt P43485 1-448)
chain: MSTQWGWALEPDQPGYDDARLGLNRAAESRPAYVVEAADEQEVAAAVRLAAEQKRPVGVMATGHGPSVSADDAVLVNTRRMEGVSVDAARATAWIEAGARWRKVLEHTAPHGLAPLNGSSPNVGAVGYLVGGGAGLLGRRFGYAADHVRRLRLVTADGRLRDVTAGTDPDLFWAVRGGKDNFGLVVGMEVDLFPVTRLYGGGLYFAGEATAEVLHAYAEWVRHVPEEMASSVLLVHNPDLPDVPEPLRGRFITHLRIAYSGEPADGEHLVRPLRELGPILLDTVRDMPYAEVGTIHHEPTSMPYVAYDRNVLLSDLTDDAVDIIVALAGPDAGAPFVTELRHFGGAYARPPKVPNCVGGRDAAFSLFTGAVPEAEGLRRRDDLLDRLRPWSTGGTNLNFAGVEDISPASVEAAYTPADFARLRAVKAQYDPDNMFRVNFNIPPAESWT
modifications: FAD covalently bound to His64
binding: no binding
